The target in this experiment is NPM1_(264–277), fragment corresponding to the 2nd helix (residues 264–277) of the C-terminal domain of nucleophosmin 1. Briefly: ESI-MS; peptide alone in the presence of DTT (reducing conditions), Figure S3B; both purified.

Results are given in words; binding and its absence hold for the method and conditions named.

Consider VEAKFINYVKNCFR (acetylated and amidated version), for which the binding entry is “no binding (condition: under reducing conditions (DTT))”.

Values taken from PMC6958441, “Role of the Metal Center in the Modulation of the Aggregation Process of Amyloid Model Systems by Square Planar Complexes Bearing 2-(2′-pyridyl)benzimidazole Ligands” (Pharmaceuticals, 2019).
